Data published in publication PMC9832878.
Results are given in words; binding and its absence hold for the method and conditions named. Sequences can lack the tags named with a protein.

Chains of the proteins cited; added tags and fusions are not shown.
UniProt Q40168: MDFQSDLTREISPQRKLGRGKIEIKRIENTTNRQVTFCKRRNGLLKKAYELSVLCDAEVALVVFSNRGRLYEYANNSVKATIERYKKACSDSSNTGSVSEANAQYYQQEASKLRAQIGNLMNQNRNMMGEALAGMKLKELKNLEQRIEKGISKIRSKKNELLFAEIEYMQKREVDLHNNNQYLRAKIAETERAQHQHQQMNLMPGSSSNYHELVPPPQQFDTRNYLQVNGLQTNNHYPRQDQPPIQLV

Target: T1, SlGASA1 fused to the GAL4 DNA-binding domain (tomato (Solanum lycopersicum)) (UniProt P27057)
T1 sequence: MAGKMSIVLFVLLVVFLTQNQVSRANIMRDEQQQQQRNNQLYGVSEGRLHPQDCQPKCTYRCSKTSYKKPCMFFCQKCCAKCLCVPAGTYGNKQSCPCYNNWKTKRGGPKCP
Experiment: two-hybrid; SlGASA1 on the GAL4 DNA-binding domain (pGBKT7) as bait, ripening regulators on the GAL4 activation domain (pGADT7) as preys; yeast AH109; growth on SD-Leu-Trp-His-Ade

binding: no binding
Substance: TAG1 fused to the GAL4 activation domain (from UniProt Q40168 1-248)
